Results on one substance are retold here after patent US20190022198A1, “Individualized Immunomodulation Therapy for Neurodegenerative Disorders, CNS Injury and Age-Related Dementia” (Yeda Research and Development Co. Ltd., priority 2012, published 2019).

The data set concerns mSOD1 mice. The experiment in a line: MOG immunization of mSOD1 mice: EAE symptoms, CP trafficking molecules, leukocytes in CSF and spinal cord, survival. In kind it is in vivo, mouse. To be noted: mSOD1 mice immunized at the age of 60 days.

For “MOG35-55 (MEVGWYRSPFSRVVHLYRNGK; emulsified in adjuvant) [emulsified in incomplete Freund's adjuvant containing 0.5 mg/ml M. tuberculosis]”, the “clinical symptoms of autoimmune encephalomyelitis” value is “mild and transient clinical symptoms of autoimmune encephalomyelitis”.
